Test results reported in PubChem BioAssay AID504444 (National Center for Advancing Translational Sciences (NCATS), 2011).
About 7,500 (2.1%) of roughly 360,000 compounds were called active. Inconclusive results, whose numbers are uncertain, are shown with a selection of clear calls. Calls come from the whole dose curve; as a rule, active = well fitted inhibition curve with a large enough effect; inconclusive = small, poorly fitted or top-dose-only effect, or effect the other way; inactive = flat fitted curve, though single readings scatter. Potencies of inconclusive entries are doubtful fits and often do not repeat.

Assay: Nrf2 qHTS screen for inhibitors; note: nearly all actives have a fitted effect of over 60% in size
Conditions: A549 ARE-Fluc reporter, luciferase luminescence, 18-24 h; series mostly up to 46 µM
Summary of the method: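 Reporter: ARE-Fluc in A549. Exposure: 18-24 h, 37 °C, 5% CO2, 5% FBS OPTI-MEM. Readouts: fluorescent cytotoxicity (CellTiter-Fluor), then luminescent Nrf2 signal after BugLite.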
Potency is the fitted concentration of half-maximal effect.

SMILES	Potency
Cc1ccccc1OCCn1cc(C(=S)N2CCCC2)c2ccccc21	inconclusive: 29.1 µM [falling, single point]
COc1ccc(OC)c(NC(=O)Cn2cc(C(=O)c3cccs3)c3ccccc32)c1	inconclusive: 20.6 µM [falling, single point]
Cc1cc(Nc2ccc(N(C)C)cc2)n2ncnc2n1	inconclusive: 18.4 µM [falling, partial curve, poor fit]
O=C(COc1c(Br)cc(Br)c2cccnc12)N1CCc2ccccc2C1	inconclusive: 29.1 µM [falling, single point]
O=C1c2ccccc2NC(c2ccccc2O)N1Cc1ccco1 (configuration not stated)	inactive
CC(C)CC(=O)Nc1sc2c(c1C#N)CC(C)(C)NC2(C)C	inconclusive: 29.1 µM [activator, single point]
COc1ccc(/C=C/C(=O)Nc2ccc(Cl)c(Cl)c2)cc1OC	inconclusive: 29.1 µM [falling, single point]
OCc1c[nH]c(=S)n1CCOc1cccc(C(F)(F)F)c1	inconclusive: 14.6 µM [falling, partial curve]
O=C(COc1ccc(Br)cc1CO)Nc1ccc(S(=O)(=O)N2CCCC2)cc1	inconclusive: 29.1 µM [falling, single point]
O=C(Cn1nc(C(F)(F)F)c2c1CCCC2)Nc1ccc(F)c(Cl)c1	inconclusive: 23.1 µM [falling, single point]
COc1ccc(NC(=O)CSc2nc3ccsc3c(=O)n2Cc2ccccn2)c(OC)c1	inconclusive: 29.1 µM [activator, single point]
Cc1nc2nc(SCC(=O)c3cccc([N+](=O)[O-])c3)[nH]c2cc1Br	inconclusive: 29.1 µM [activator, single point]
COc1cc(NC(=O)c2ccc(Br)o2)ccc1NC(=O)c1ccccc1Cl	inconclusive: 7.31 µM [falling, partial curve, poor fit]
CCn1c(C(=O)N2CCCC(C(=O)NCCc3ccc(C)cc3)C2)cc2sccc21 (configuration not stated)	inconclusive: 18.4 µM [falling, single point]
COc1ccc(Cc2nc(C(=O)Nc3ccccc3)cs2)cc1	inactive
CCCCN(CC)C(=O)CSc1nc2ccccc2c(=O)n1CC1COc2ccccc2O1 (configuration not stated)	inconclusive: 29.1 µM [falling, single point]
CCCn1c(=O)c2ccccc2n2c(SCCOc3ccc(Cl)cc3)nnc12	inconclusive: 0.0326 µM [falling, full curve, poor fit]
CCOc1ccccc1N1CCN(C(=O)c2cc(C)oc2C)CC1	inconclusive: 4.11 µM [falling, full curve, poor fit]
Cc1cc(C)cc(NC(=S)NC2CC3CCCC(C2)N3CC(C)C)c1 (configuration not stated)	inactive
O=C(NCC1COc2ccccc2O1)c1c[nH]c2ccc(S(=O)(=O)N3CCOCC3)cc2c1=O (configuration not stated)	inactive
CCOc1ccccc1/C=N/NC(=O)Cc1csc(Nc2cccc(C(F)(F)F)c2)n1	inconclusive: 29.1 µM [falling, partial curve, poor fit]

SMILES	Potency
Cc1cc2c(cc1C)C(c1cc(Br)ccc1F)CC(=O)N2 (configuration not stated)	inactive
COc1cccc(C(=O)Nc2nc(-c3ccc(S(=O)(=O)N4CCOCC4)cc3)cs2)c1	active: 13 µM
O=C1/C(=C/c2ccncc2)SC(=S)N1Cc1ccccc1	inactive
O=C(Nc1ccc2ccccc2n1)c1ccc(Cl)cc1	inconclusive: 0.517 µM [activator, full curve, poor fit]
O=S(=O)(c1ccc(Br)s1)N1CCN(CCc2ccccc2)CC1	inconclusive: 23.1 µM [falling, single point]
Cc1cc(C)c2nc(Nc3nc(-c4ccccc4)cc(=O)[nH]3)nc(C)c2c1	inconclusive: 6.51 µM [falling, partial curve]
CCN(C(=O)CSc1nc2ccccc2c(=O)n1-c1ccccc1F)C1CCS(=O)(=O)C1 (configuration not stated)	inconclusive: 18.4 µM [falling, single point]
O=C(CCCn1c(=O)c2cccn2c2cccnc21)NCc1cccc(Br)c1	inconclusive: 9.2 µM [falling, partial curve, poor fit]
COc1ccccc1C(=O)Nc1ccccc1SC	inconclusive: 29.1 µM [activator, single point]
CCN(CC)S(=O)(=O)c1cc(NS(=O)(=O)c2cccc(Cl)c2Cl)ccc1C	inconclusive: 29.1 µM [falling, single point]
O=C(O)c1ccc(Nc2nc(-c3ccccc3)nc3ccccc23)cc1	inconclusive: 2.59 µM [falling, partial curve, poor fit]
Cc1cccc(NC(=O)COC(=O)c2nn(C)c(=O)c3ccccc23)c1C	inactive
c1ccc2c(-c3nc4ncccc4o3)cccc2c1	inconclusive: 5.8 µM [activator, partial curve]
O=C(Nc1cccnc1)OC1CCCCC1	inconclusive: 2.59 µM [activator, full curve, poor fit]
CCOC(=O)c1cc(-c2ccccc2)nn1Cc1ccccc1	inconclusive: 9.2 µM [activator, partial curve, poor fit]
CCN(Cc1cccs1)c1ncnc2ccc(-c3ccc4c(c3)OCO4)cc12	inactive
O=C(CSc1nc2ccccc2s1)Nc1nccs1	inconclusive: 5.17 µM [falling, single point]
O=S(=O)(Nc1nc2ccccc2nc1-[n+]1cccc(N=C([O-])c2ccc(Cl)cc2)c1)c1ccccc1	inconclusive: 29.1 µM [activator, single point]
COc1ccc(Oc2ccc(-c3ccn[nH]3)cc2)cc1	inconclusive: 1.84 µM [activator, full curve, poor fit]
CCOc1ccc(-c2cc(C(=O)NN)[nH]n2)cc1	inconclusive: 1.64 µM [activator, full curve]
COc1ccc2oc(C(=O)N3CCN(S(=O)(=O)c4ccc(F)cc4)CC3)c(C)c2c1	inconclusive: 13 µM [falling, partial curve]

For reference, some entries already given.
SMILES	Potency
O=C(O)c1ccc(Nc2nc(-c3ccccc3)nc3ccccc23)cc1	inconclusive: 2.59 µM [falling, partial curve, poor fit]
Cc1cccc(NC(=O)COC(=O)c2nn(C)c(=O)c3ccccc23)c1C	inactive
c1ccc2c(-c3nc4ncccc4o3)cccc2c1	inconclusive: 5.8 µM [activator, partial curve]
